Measured values as given in patent US20150175697A1 (MacroGenics, published 2015).
Results are given in words; binding and its absence hold for the method and conditions named. Some binding calls cover weakened binding; strength is not graded here.

Biological target: T1, sCD32B-Ig (UniProt P31994 43-217)
T1 construct: extracellular domain; also called CD32B-Fc; CD32-Fc; not shown: Ig/Fc part not described
T1 sequence (looked up): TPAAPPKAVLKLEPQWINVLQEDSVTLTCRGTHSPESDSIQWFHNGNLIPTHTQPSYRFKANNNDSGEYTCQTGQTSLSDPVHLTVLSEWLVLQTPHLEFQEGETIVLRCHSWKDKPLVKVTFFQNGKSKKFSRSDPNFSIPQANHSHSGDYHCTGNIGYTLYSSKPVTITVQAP
Experiment: sandwich ELISA, sCD32B-Ig coat, sCD16A probe

B1: h2B6-h3G8 covalent bispecific diabody (CBD) (bispecific antibody)
chain 1: EIVLTQSPDFQSVTPKEKVTFTCRTSQSIGTNIHWYQQKPDQSPKLLIKEVSESISGVPSRFSGSGSGTDFTLTINSLEAEDAATYYCQQSNTWPFTFGGGTKVEIKGGGSGGGGQVTLRESGPALVKPTQTLTLTCTFSGFSLSTSGMGVGWIRQPPGKALEWLAHIWWDDDKRYNPALKSRLTISKDTSKNQVVLTMTNMDPVDTATYYCAQINPAWFAYWGQGTLVTVSSLGGC
chain 2: DIVMTQSPDSLAVSLGERATINCKASQSVDFDGDSFMNWYQQKPGQPPKLLIYTTSNLESGVPDRFSGSGSGTDFTLTISSLQAEDVAVYYCQQSNEDPYTFGQGTKLEIKGGGSGGGGQVQLVQSGAEVKKPGASVKVSCKASGYTFTNYWIHWVRQAPGQGLEWIGVIDPSDTYPNYNKKFKGRVTMTVVVSTSTAYMELRSLRSDDTAVYYCARNGDSDYYSGMDYWGQGTTVTVSSLGGC
notes: covalent heterodimer of constructs 1 and 2; also called h2B6-h3G8 CBD; h2B6-h3G8 diabody
binding: binds
